{"sequences": {"note": "Amino acid sequences for entries named in this document (tags omitted).", "UniProt Q0JBA9, entry or part of it": "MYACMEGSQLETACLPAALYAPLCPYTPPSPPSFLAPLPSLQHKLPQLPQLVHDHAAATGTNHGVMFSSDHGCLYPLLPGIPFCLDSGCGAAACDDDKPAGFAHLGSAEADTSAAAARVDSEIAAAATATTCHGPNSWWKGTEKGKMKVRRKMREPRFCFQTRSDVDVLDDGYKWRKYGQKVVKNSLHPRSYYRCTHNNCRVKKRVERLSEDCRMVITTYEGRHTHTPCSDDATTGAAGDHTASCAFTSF"}, "source": "paper PMC7819943", "about": "“Rice protein-binding microarrays: a tool to detect cis-acting elements near promoter regions in rice”", "note": "This is one part of the list.", "data": [{"target": "OsWRKY34 (Oryza sativa, UniProt Q0JBA9 1-250)", "experiment": "protein-binding microarray (RPBM); PBS, 2% BSA, 51.3 ng/ul salmon testes DNA, 50 uM zinc acetate, 200 nM TF, 25 C, 1 h; high values mean tight binding", "settings": "protein: recombinant; tags: N-terminal polyhistidine and DsRed monomer fusion (pET32a); label: CyDye5-dUTP incorporated in the synthesized complementary strand; 3' TTTTT single-stranded linker to array surface; dsDNA, one strand shown", "outline": "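Per-feature fluorescence intensity (arbitrary units), read on an Axon 4000B scanner, is the binding signal. Transcription factors carrying an N-terminal polyhistidine tag and DsRed fusion were expressed in E. coli BL21-CodonPlus and purified on Ni–NTA. A custom Agilent array, made double-stranded by primer extension with Cy5-dUTP and blocked with 2% BSA, was incubated with 200 nM protein in PBS, 2% BSA, salmon testes DNA and 50 µM zinc acetate at 25 °C for 1 h and then washed.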", "values": [{"sequence": "CAGCAACCGTTCGTCGCGCCTCTATTTACGTGTTCGTTCGCGGAGTCACCTAGTGCAG", "binding signal": "8310 fluorescence intensity (a.u.)"}, {"sequence": "CCAACACGTACGCCAGCCTCATCGGCCTCACCTGGTCGCTCGGAGTCACCTAGTGCAG", "binding signal": "9090 fluorescence intensity (a.u.)"}, {"sequence": "TCCCTCGTCATCGTCAACCTCCTCCTCGTCCGCTTCCTGTCGGAGTCACCTAGTGCAG", "binding signal": "10100 fluorescence intensity (a.u.)"}, {"sequence": "CAACACCCCTCGACACGTCGTTCATGCTCATTCGCGTACCCGGAGTCACCTAGTGCAG", "binding signal": "8890 ± 395 fluorescence intensity (a.u.)"}, {"sequence": "GCCCTCGCTTTCTTCCCGCACCAACCCCGCCTACCGCTCCCGGAGTCACCTAGTGCAG", "binding signal": "8090 fluorescence intensity (a.u.)"}, {"sequence": "AACGACCCTTTGCTAGGTTTTGGATTTGTTTTGCTTTCTCCGGAGTCACCTAGTGCAG", "binding signal": "11200 fluorescence intensity (a.u.)"}, {"sequence": "GCAAGACCGTGTCAGGTCTTCCAATAACTCCCCGCGATTTCGGAGTCACCTAGTGCAG", "binding signal": "8200 fluorescence intensity (a.u.)"}, {"sequence": "AACTCTTTCCTTCTCTCTCATCCCCATTTCATGCAAATAACGGAGTCACCTAGTGCAG", "binding signal": "8480 fluorescence intensity (a.u.)"}, {"sequence": "TCCCACATATTTTTTTATTTTGTTTTTATTCTAATGTCACCGGAGTCACCTAGTGCAG", "binding signal": "9810 fluorescence intensity (a.u.)"}, {"sequence": "TGAGAAGGACCACTTAATTCTGAATATTCTCTTGGACAACCGGAGTCACCTAGTGCAG", "binding signal": "8530 fluorescence intensity (a.u.)"}, {"sequence": "GCGGCCGGTCCGAGCGAGCGGAGAGGGAGGAGGCGGGGAGCGGAGTCACCTAGTGCAG", "binding signal": "8360 fluorescence intensity (a.u.)"}, {"sequence": "GTGGTATCATGTATCTAGTGGCGAGTGCGTTTACCATATACGGAGTCACCTAGTGCAG", "binding signal": "10200 fluorescence intensity (a.u.)"}, {"sequence": "GAGCTCGGCCTATCACCCACAAACTGATTGTCAGACCGAGCGGAGTCACCTAGTGCAG", "binding signal": "8260 fluorescence intensity (a.u.)"}, {"sequence": "GTGTTCCATGCCTCTAACCTAGCTACTTTTGCTGCCACTCCGGAGTCACCTAGTGCAG", "binding signal": "12100 fluorescence intensity (a.u.)"}, {"sequence": "CGCTGGTCAAACCTATGGGTTATGTACTAATTTTGCCTATCGGAGTCACCTAGTGCAG", "binding signal": "8640 fluorescence intensity (a.u.)"}, {"sequence": "TGGCTGGTTACCCATCCTAGGCTCCCAGCGGTTTCTTGCACGGAGTCACCTAGTGCAG", "binding signal": "8090 fluorescence intensity (a.u.)"}, {"sequence": "TGCGCATCGTCCGATCCCAACCGTCCATCCCAGATCGGACCGGAGTCACCTAGTGCAG", "binding signal": "8180 fluorescence intensity (a.u.)"}, {"sequence": "GTGGCGAGGGAGGGCTTTTGGCTGAGAGTCGACGGCGGGGCGGAGTCACCTAGTGCAG", "binding signal": "10500 fluorescence intensity (a.u.)"}, {"sequence": "TCTCTCCATCCCCTCACTCTTGGACACTTTGAGCTAAGCTCGGAGTCACCTAGTGCAG", "binding signal": "9530 fluorescence intensity (a.u.)"}, {"sequence": "TTCTTCTTCGTCTTCGTCTTCGTCTTCGTCTTCTTCTTCACGGAGTCACCTAGTGCAG", "binding signal": "13200 fluorescence intensity (a.u.)"}, {"sequence": "CTCGCCGTCTTCCCCACCCTCACGCTCGCCTTCATCGCCGCGGAGTCACCTAGTGCAG", "binding signal": "8610 fluorescence intensity (a.u.)"}, {"sequence": "GCAGCCAAACCCTCCACTCCTCGCTTCTCCGGTGGTTCTCCGGAGTCACCTAGTGCAG", "binding signal": "8660 fluorescence intensity (a.u.)"}, {"sequence": "CGGCTTTATCTCCGTCTCCAATCTCCTTCTACGACCAGACCGGAGTCACCTAGTGCAG", "binding signal": "11500 fluorescence intensity (a.u.)"}, {"sequence": "ACCCTAGCCGCCACTCCGCCATTTCGGTAAGGTTTGCTGCCGGAGTCACCTAGTGCAG", "binding signal": "10700 fluorescence intensity (a.u.)"}, {"sequence": "CTACACTGTCTTGCTCGCTCATTGTCTCTCTCTGCATTTGCGGAGTCACCTAGTGCAG", "binding signal": "8580 fluorescence intensity (a.u.)"}, {"sequence": "TGGCTGGTTGGGAGGGGACAGCACATGATGCTGTAGTTTTCGGAGTCACCTAGTGCAG", "binding signal": "14600 fluorescence intensity (a.u.)"}, {"sequence": "TCTTCTCTCTTATCATTTATCTCATTAAAATATGTTTATACGGAGTCACCTAGTGCAG", "binding signal": "8650 fluorescence intensity (a.u.)"}, {"sequence": "CTATTTCCTTCTAGCTTCGCCCTGGGCTCGAGTATGCTTTCGGAGTCACCTAGTGCAG", "binding signal": "8530 fluorescence intensity (a.u.)"}, {"sequence": "ACTGTGGTTATCTTGCTATCTCTCCTACTCGCTCTGTCAACGGAGTCACCTAGTGCAG", "binding signal": "16500 fluorescence intensity (a.u.)"}, {"sequence": "GGTGCCAATATTACTGCTTCATCTGAATTTGTTCTTGATTCGGAGTCACCTAGTGCAG", "binding signal": "9220 fluorescence intensity (a.u.)"}, {"sequence": "TGCCATGCCATCCGACCGCCCCTCCCGCCGCGCCTAAAACCGGAGTCACCTAGTGCAG", "binding signal": "8450 fluorescence intensity (a.u.)"}, {"sequence": "CAACTCCGCTTCTTTTATAATAGCCGTCCATACCCGCCCACGGAGTCACCTAGTGCAG", "binding signal": "9100 fluorescence intensity (a.u.)"}, {"sequence": "CGCCGCGCGTACGTTTCGTCTTCGGCCTCGTCTCGGCGTGCGGAGTCACCTAGTGCAG", "binding signal": "8870 fluorescence intensity (a.u.)"}, {"sequence": "CTTCCACACCGCAATCTCGCAACACATCAGCACACACCGCCGGAGTCACCTAGTGCAG", "binding signal": "10300 fluorescence intensity (a.u.)"}, {"sequence": "TTTGATCTCCTAGCTAGCTGTTGCACGTACGTCCCCTATACGGAGTCACCTAGTGCAG", "binding signal": "9120 fluorescence intensity (a.u.)"}, {"sequence": "GGTGATTCATATGCTGGCCCTATTCGAAGGCACTTGCTGCCGGAGTCACCTAGTGCAG", "binding signal": "8600 fluorescence intensity (a.u.)"}, {"sequence": "CAGAACTCATAAACATGTACCTACTGTGTCCTTTTCGTTGCGGAGTCACCTAGTGCAG", "binding signal": "9960 fluorescence intensity (a.u.)"}, {"sequence": "CTATAACCCGCTGCTTTTCTCTCTTATCTTTTACCTCATTCGGAGTCACCTAGTGCAG", "binding signal": "9380 fluorescence intensity (a.u.)"}, {"sequence": "CTTCAACTTTTGTCCATTTTCAGACGGTATTACTCTTGCACGGAGTCACCTAGTGCAG", "binding signal": "9970 fluorescence intensity (a.u.)"}, {"sequence": "TCTTCCACTCCTCCTCTCTCTCTTGTCTCTCTCGCTCTTCCGGAGTCACCTAGTGCAG", "binding signal": "10400 fluorescence intensity (a.u.)"}, {"sequence": "CTACTTCCAAGTTCCTACCTATCAATTTCTCTCCTCCTCTCGGAGTCACCTAGTGCAG", "binding signal": "8510 fluorescence intensity (a.u.)"}, {"sequence": "CCCTCTACGTCGTTCTCGCGCCGCGACCGTCTTGGAGGCCCGGAGTCACCTAGTGCAG", "binding signal": "9630 fluorescence intensity (a.u.)"}]}]}
